Experimental data taken from patent publication US5821039A, “Photographic element containing neutral dye-forming resorcinol coupler” (Eastman Kodak Company, priority 1997, dated 1998).

What was measured:
[1] = Dye image density at maximum exposure, color negative film format, Kodak Flexicolor (C-41) process; conditions: for Blue density at maximum exposure / Green density at maximum exposure / Red density at maximum exposure: color negative film, C-41 process, 0.27 g/m^2 of coupler
From the text: These samples were exposed imagewise through a stepped density test object and subjected to the Kodak Flexicolor (C-41) Process as described in British Journal of Photography Annual, 1988, pp. 196-198 using fresh unseasoned processing solutions.

[2] = Dye image density, color paper format, Kodak Ektacolor RA-4 process; conditions: 1.08 g/m^2 of S-1
From the text: This imaging layer was overcoated with a UV layer consisting of 1.33 g/m^2 gelatin, 0.73 g/m^2 of 2-(2H-benzotriazol-2-yl)-4,6-bis(1,1-dimethylpropyl)phenol and 0.13 g/m^2 of Tinuvin 326 (trademark of Ciba-Geigy) and finally, an overcoat of gelatin at 1.4 g/m^2 and bis(vinylsulfonyl)methane hardener at 0.14 g/m^2. This sample was given a stepped exposure and processed according to the Kodak Ektacolor RA-4 process as described in The British Journal of Photography Annual of 1988, pp 198-199.

Row | Structure (SMILES) | Blue density at maximum exposure [1] | Green density at maximum exposure [1] | Red density at maximum exposure [1] | Blue density [2] | Green density [2] | Red density [2] | density / neutral dye formation (in words) ([1]; conventional processing, data of Table I)
1 | CCCCCCCCCCCCCCCCCCNC(=O)c1cc(O)cc(O)c1 [S-1, 3,5-Dihydroxy-N-n-octadecylbenzamide] | .461 | .493 | .343 | .800 | .870 | .800 | –
2 | CCCCCCCCCCCCCCOc1ccccc1NC(=O)c1cccc(S(=O)(=O)Nc2c(O)cccc2O)c1 [CS-1, reference compound] | Trace | – | – | – | – | – | fails to provide measurable density
3 | CCCCCCCCCCCCCCCCCCNC(=O)c1cc(O)c(Br)c(O)c1 [S-5] | .344 | .406 | .270 | – | – | – | –
